Test results: patent US20070269439A1 (published 2007)
Results are given in words; binding and its absence hold for the method and conditions named. Some binding calls cover weakened binding; strength is not graded here.

The chains behind the UniProt entries cited, without tags or fusion partners. Residues count along the entry.
UniProt Q96F46, residues 33-315: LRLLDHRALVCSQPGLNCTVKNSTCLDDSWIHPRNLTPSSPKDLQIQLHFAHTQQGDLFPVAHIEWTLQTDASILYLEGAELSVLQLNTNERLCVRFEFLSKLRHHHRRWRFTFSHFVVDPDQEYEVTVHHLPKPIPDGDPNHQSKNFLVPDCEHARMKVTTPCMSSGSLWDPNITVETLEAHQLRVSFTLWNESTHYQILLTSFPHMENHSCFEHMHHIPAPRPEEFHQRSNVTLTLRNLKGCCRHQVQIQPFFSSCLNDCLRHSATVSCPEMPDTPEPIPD
UniProt Q16552, residues 20-155: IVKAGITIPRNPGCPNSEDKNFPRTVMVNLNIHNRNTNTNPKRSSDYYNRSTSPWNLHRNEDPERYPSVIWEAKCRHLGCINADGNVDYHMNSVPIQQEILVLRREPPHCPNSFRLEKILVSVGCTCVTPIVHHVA

Assays:
[1] = target: IL-17 receptor (Met-1 through Asp-315)-Fc (human) (UniProt Q96F46); assay: BIACORE SPR, IL-17R-Fc immobilised
[2] = target: IL-17 receptor (Met-1 through Asp-315)-Fc (human) (UniProt Q96F46); assay: BIACORE SPR, receptor-Fc immobilised on the flow cell

binding [1]: binds
binding [2]: binds
Substance: Recombinant human IL-17 (R&D Systems) (from UniProt Q16552 20-155) (ligand)
